Source: the supplement of paper PMC10849652
Some of the results follow.

Sequences of proteins named here, by UniProt entry; tags and fusion partners are left off. A change or cut given only in a name is not applied to a line headed by its entry.
UniProt O75150, whole entry, looked up: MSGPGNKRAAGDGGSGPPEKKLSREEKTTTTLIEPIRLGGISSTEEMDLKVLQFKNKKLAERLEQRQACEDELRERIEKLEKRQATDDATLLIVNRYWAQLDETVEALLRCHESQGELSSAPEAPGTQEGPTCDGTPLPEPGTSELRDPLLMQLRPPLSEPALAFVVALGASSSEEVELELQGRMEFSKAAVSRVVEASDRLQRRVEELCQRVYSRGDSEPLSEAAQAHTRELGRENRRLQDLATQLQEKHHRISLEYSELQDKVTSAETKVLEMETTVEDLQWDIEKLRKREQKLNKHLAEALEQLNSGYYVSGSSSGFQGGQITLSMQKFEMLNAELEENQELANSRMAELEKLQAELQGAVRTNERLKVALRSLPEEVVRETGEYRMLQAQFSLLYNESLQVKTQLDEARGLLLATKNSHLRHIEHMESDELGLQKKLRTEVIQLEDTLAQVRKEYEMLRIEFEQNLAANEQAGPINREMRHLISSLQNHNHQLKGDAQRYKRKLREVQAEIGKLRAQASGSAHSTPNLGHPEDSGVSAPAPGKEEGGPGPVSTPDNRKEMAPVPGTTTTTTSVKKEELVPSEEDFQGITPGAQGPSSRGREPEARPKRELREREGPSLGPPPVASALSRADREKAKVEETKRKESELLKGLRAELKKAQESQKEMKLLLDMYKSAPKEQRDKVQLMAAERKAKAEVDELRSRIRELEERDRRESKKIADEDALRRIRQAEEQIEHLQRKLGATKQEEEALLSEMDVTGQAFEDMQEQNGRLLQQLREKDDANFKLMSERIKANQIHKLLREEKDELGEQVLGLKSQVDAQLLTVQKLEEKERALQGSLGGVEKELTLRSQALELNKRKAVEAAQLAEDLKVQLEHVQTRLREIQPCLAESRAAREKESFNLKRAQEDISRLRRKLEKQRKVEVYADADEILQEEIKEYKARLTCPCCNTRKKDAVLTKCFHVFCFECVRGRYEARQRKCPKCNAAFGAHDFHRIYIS
UniProt P60602: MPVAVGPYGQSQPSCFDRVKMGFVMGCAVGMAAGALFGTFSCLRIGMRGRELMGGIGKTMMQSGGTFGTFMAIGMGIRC
UniProt P08922: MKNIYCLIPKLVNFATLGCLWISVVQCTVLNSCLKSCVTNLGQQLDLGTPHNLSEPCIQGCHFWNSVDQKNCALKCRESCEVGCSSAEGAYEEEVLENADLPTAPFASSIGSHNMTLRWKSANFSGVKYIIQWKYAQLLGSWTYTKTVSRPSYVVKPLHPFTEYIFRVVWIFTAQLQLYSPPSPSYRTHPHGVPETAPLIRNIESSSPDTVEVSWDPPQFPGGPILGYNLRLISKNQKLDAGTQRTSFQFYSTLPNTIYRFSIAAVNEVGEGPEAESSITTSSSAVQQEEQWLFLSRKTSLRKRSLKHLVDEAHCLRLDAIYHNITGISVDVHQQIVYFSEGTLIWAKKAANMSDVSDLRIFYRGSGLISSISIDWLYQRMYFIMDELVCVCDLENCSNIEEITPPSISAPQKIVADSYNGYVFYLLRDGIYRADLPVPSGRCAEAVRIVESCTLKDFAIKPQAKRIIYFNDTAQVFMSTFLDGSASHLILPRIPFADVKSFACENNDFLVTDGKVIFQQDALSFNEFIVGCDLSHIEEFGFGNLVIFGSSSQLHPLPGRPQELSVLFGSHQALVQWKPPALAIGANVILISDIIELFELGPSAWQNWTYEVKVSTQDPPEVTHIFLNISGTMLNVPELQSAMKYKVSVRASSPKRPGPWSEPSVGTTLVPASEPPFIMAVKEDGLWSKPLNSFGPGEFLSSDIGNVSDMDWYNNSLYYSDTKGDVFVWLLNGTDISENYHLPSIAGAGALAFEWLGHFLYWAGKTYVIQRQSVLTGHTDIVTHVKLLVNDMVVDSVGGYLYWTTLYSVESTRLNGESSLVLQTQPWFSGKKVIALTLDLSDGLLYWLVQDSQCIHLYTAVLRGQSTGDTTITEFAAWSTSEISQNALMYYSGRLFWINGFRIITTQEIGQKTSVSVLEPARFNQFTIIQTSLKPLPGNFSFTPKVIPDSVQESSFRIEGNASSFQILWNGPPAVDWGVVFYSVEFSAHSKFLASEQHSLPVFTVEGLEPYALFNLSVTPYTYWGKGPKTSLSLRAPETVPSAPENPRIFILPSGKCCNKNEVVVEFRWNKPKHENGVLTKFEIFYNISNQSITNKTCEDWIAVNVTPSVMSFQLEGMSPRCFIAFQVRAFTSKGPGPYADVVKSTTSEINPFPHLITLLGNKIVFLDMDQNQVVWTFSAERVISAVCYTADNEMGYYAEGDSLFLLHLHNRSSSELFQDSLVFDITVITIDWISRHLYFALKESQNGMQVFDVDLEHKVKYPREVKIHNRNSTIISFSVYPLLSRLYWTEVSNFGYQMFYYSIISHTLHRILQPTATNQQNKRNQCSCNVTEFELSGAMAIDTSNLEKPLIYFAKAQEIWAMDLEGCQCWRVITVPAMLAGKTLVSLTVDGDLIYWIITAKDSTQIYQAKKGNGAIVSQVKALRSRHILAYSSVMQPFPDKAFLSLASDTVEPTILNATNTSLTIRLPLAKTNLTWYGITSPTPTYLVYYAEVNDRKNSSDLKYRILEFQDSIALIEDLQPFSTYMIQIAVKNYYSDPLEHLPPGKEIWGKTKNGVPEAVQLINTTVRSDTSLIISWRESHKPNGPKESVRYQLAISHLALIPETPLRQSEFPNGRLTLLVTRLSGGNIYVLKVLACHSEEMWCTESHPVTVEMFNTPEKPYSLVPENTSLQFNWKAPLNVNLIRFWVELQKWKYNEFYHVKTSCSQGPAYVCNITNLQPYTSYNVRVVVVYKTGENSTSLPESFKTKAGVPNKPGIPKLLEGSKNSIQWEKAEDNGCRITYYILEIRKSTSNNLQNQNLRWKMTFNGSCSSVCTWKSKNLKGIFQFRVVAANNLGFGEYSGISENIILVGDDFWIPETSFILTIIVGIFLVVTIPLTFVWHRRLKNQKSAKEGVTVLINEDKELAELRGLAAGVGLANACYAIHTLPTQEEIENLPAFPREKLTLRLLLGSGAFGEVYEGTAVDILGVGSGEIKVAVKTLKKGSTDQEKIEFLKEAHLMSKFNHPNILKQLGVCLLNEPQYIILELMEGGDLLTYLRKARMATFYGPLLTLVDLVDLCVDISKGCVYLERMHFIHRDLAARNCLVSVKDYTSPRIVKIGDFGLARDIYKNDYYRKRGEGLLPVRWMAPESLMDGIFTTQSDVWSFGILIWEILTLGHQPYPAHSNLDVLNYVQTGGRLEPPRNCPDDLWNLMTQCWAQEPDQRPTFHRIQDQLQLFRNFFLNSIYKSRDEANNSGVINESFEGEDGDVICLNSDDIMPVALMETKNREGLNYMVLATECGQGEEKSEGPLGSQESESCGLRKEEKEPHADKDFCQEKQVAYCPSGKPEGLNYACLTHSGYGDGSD
UniProt Q9UBS0: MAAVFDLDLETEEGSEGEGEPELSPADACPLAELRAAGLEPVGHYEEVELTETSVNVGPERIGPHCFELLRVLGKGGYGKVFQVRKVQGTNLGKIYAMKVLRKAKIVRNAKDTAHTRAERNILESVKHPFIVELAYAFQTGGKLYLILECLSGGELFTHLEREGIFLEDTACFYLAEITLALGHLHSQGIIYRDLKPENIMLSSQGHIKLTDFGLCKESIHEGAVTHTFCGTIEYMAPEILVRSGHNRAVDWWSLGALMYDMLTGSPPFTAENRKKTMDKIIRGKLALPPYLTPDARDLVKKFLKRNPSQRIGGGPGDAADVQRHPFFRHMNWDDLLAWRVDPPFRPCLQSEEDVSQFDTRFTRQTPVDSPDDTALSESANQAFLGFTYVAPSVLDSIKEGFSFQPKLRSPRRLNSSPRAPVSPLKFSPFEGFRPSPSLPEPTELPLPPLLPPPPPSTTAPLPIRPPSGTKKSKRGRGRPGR
UniProt Q15287: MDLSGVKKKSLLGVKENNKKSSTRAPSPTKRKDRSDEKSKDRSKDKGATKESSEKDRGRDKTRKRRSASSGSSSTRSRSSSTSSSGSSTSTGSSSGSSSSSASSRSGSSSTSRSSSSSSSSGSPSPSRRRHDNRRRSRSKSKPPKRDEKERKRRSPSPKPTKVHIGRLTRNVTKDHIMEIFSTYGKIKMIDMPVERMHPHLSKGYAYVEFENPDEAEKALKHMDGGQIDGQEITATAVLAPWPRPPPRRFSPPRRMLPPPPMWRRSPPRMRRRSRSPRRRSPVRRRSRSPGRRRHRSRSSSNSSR
UniProt Q01974, whole entry, looked up: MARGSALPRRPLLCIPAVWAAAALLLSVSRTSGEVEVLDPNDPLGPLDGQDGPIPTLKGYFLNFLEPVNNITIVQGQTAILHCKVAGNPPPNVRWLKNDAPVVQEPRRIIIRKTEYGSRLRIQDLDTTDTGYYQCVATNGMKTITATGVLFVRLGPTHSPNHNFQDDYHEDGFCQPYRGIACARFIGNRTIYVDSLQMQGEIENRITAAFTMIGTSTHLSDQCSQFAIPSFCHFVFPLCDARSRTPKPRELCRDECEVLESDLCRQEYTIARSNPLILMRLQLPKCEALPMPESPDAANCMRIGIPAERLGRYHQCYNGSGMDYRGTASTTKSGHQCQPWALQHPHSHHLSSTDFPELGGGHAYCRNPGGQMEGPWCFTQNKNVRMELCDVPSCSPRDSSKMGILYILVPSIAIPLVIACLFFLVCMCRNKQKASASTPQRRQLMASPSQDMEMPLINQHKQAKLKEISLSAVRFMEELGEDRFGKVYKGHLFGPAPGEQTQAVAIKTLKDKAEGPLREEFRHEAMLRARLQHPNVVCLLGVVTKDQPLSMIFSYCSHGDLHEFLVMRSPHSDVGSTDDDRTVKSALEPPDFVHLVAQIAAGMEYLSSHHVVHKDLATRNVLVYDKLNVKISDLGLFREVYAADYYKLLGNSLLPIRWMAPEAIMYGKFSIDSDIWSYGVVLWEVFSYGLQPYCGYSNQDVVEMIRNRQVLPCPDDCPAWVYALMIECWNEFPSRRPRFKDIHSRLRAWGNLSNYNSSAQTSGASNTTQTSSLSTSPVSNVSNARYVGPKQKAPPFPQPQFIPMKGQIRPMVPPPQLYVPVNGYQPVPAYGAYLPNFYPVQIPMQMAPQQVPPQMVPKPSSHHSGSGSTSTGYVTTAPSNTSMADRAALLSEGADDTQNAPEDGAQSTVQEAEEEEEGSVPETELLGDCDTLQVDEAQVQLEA
UniProt P78317: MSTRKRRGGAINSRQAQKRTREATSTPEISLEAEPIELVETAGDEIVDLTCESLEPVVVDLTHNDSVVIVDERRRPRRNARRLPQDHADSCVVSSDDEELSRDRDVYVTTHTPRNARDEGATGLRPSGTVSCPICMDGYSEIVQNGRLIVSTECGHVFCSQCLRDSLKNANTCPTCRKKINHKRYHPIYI
UniProt P51812, whole entry, looked up: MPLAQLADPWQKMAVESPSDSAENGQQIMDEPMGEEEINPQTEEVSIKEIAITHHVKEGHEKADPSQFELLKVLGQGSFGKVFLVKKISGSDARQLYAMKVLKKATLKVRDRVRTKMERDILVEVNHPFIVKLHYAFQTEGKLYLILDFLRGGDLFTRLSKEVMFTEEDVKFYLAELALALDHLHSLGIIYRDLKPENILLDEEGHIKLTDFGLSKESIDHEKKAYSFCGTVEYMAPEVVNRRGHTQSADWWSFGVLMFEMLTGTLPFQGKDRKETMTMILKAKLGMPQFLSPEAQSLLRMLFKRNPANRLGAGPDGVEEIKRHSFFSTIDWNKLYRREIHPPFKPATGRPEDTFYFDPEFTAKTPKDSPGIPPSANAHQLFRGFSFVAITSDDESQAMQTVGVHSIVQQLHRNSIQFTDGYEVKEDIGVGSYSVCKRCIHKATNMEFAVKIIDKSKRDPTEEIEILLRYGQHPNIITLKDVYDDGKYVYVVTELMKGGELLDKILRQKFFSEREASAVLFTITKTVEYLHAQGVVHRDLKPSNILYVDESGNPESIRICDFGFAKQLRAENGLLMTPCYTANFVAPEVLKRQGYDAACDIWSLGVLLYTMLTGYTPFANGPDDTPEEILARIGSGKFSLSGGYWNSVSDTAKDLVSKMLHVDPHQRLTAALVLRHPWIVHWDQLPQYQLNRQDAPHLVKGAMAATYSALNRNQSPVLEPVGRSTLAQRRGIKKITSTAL
UniProt P56182: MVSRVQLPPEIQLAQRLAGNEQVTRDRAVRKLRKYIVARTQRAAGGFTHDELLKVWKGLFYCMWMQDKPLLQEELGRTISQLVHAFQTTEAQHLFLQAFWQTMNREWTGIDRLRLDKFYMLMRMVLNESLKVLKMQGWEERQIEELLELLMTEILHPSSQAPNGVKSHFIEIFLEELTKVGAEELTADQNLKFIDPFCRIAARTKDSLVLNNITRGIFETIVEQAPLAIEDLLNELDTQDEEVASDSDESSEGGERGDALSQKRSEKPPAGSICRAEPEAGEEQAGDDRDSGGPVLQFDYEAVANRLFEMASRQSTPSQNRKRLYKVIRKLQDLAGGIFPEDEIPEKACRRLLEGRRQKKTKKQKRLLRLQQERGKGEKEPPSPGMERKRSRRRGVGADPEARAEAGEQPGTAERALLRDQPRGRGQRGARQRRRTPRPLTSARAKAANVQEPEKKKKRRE

Tests used:
Assay in all cases: log2 fold change, soluble protein after heating vs DMSO (PISA); higher = thermal stabilisation; K562 cells, 10 uM, 30 min; active = over 0.2 and 3.5 SD of the protein, either way, in both replicates (recomputed)
[1] = compound: CC[C@@H]1C(=O)N(C)c2cnc(Nc3ccc(C(=O)NC4CCN(C)CC4)cc3OC)nc2N1C1CCCC1
Summary of the method: (§1)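 Soluble protein was quantified by TMTpro 16plex LC-MS/MS after channel sums were equalised. It was obtained as the supernatant after 21,000xg for 90 min from pooled aliquots of K562 cells (2×10^6 cells/mL, 10 μM compound, 30 min) heated for 3 min across 48°C-58°C and extracted in PBS with 0.5% NP-40 at 4°C. Thermal stability values are relative to control samples and come from duplicates. They are given as log2 fold changes.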

volasertib = compound: CC[C@@H]1C(=O)N(C)c2cnc(Nc3ccc(C(=O)N[C@H]4CC[C@H](N5CCN(CC6CC6)CC5)CC4)cc3OC)nc2N1C(C)C [volasertib]
Summary of the method: as §1

epoxomicin = compound: CC[C@H](C)[C@@H](C(=O)N[C@@H]([C@@H](C)O)C(=O)N[C@@H](CC(C)C)C(=O)[C@]1(CO1)C)NC(=O)[C@H]([C@@H](C)CC)N(C)C(=O)C [epoxomicin]
Summary of the method: as §1

[2] = compound: CCn1c(C(=O)N(C2CC2)C2CC2)cc2c3c(ncn3C)c(Nc3cc(C)n(C)n3)nc21
Summary of the method: as §1

[3] = compound: CCn1cc(-c2ccnc3[nH]c(-c4cccc(CN(C)C)c4)cc23)c(-c2ccc(NC(=O)N(C)C)cc2)n1
Summary of the method: as §1

[4] = compound: CN1CCC(CNc2ccc3ncc(-c4cccc(OC(F)(F)F)c4)n3n2)CC1
Summary of the method: as §1

[5] = compound: CC[C@H](C)N1C=C(C2=C(C=C(C=C21)C3=CN=C(C=C3)N4CCNCC4)C(=O)NCC5=C(C=C(NC5=O)C)C)C
Summary of the method: as §1

[6] = compound: CN(C)CC(=O)Nc1ccc2[nH]c(=O)c3ccccc3c2c1
Summary of the method: as §1

rosiglitazone = compound: CN(CCOC1=CC=C(C=C1)C[C@H]2C(=O)NC(=O)S2)C3=CC=CC=N3 (racemic) [rosiglitazone]
Summary of the method: as §1

[7] = compound: CN1C2=C(C3=C1C(=O)N(N=C3)CC4=CC(=CC=C4)N)SC(=C2)S(=O)C
Summary of the method: as §1

Target | log2 fold change [1] | log2 fold change (volasertib) | log2 fold change (epoxomicin) | log2 fold change [2] | log2 fold change [3] | log2 fold change [4] | log2 fold change [5] | log2 fold change [6] | log2 fold change (rosiglitazone) | log2 fold change [7]
RRN3 (UniProt Q9NYV6) | inactive: 0.084 | inactive: 0.12 | inactive: -0.124 | inactive: -0.011 | inactive: -0.073 | inactive: 0.461 |  |  |  | 
RNF31 (UniProt Q96EP0) |  |  | inactive: 0.022 | inactive: -0.115 | inactive: -0.14 | inactive: 0.161 | inactive: 0.147 | inactive: -0.002 |  | 
RPGR (UniProt Q92834) |  |  | inactive: 0.018 |  |  |  |  |  |  | 
RNF40 (UniProt O75150) |  |  |  | inactive: 0.182 |  |  |  | inactive: 0.141 | inactive: 0.392 | inactive: 0.046
ROMO1 (UniProt P60602) | inactive: 0.033 | inactive: 0.01 | inactive: -0.178 |  | inactive: -0.023 | inactive: 0.049 | inactive: -0.06 |  |  | inactive: 0.125
ROS1 (UniProt P08922) | inactive: 0.152 | inactive: 0.127 |  | inactive: -0.172 | inactive: 0.134 | inactive: -0.207 | inactive: -0.234 |  | inactive: 0.384 | 
RPLP0 (UniProt F8VWV4) |  |  | inactive: -0.171 |  |  |  |  |  |  | 
RPS6KB2 (UniProt Q9UBS0) |  |  | inactive: -0.02 | inactive: -0.436 |  |  |  |  |  | 
RPS19 (UniProt M0R2L9) |  | inactive: 0.492 |  |  |  |  | inactive: -0.256 |  |  | 
RNFT1 (UniProt Q5M7Z0) |  | inactive: 0.108 | inactive: -0.023 | inactive: 0.109 | inactive: 0.075 | inactive: 0.068 | inactive: -0.048 |  |  | 
RPA1 (UniProt P27694) | inactive: -0.108 | active: -0.326 | inactive: 0.09 |  | inactive: -0.02 | inactive: -0.079 | inactive: 0.083 | inactive: 0.044 |  | inactive: -0.048
RPRD1A (UniProt Q96P16) |  |  | inactive: 0.15 | inactive: -0.034 | inactive: -0.013 | inactive: -0.025 |  | inactive: 0.237 |  | inactive: 0.058
RPS7, A0A2R8Y623 | inactive: 0.503 |  |  | inactive: 0.007 |  |  | inactive: 0.171 | inactive: 0.008 | inactive: 0.111 | 
RPTOR (UniProt Q8N122) | inactive: -0.116 | active: -0.237 | inactive: 0.034 |  | inactive: -0.08 | inactive: -0.197 | inactive: 0.064 | inactive: 0.03 |  | inactive: -0.037
RPAIN isoform 8 (UniProt Q86UA6) |  | active: -0.718 | inactive: -0.118 |  |  |  |  | inactive: -0.076 |  | inactive: -0.044
RNPS1 (UniProt Q15287) | inactive: 0.062 | inactive: -0.155 | inactive: -0.126 |  | inactive: -0.008 | inactive: 0.006 | inactive: 0.049 | inactive: 0.031 |  | inactive: 0.016
RPS3 (UniProt E9PJN9) | inactive: 0.098 |  |  |  | inactive: -0.125 | inactive: 0.089 |  |  |  | inactive: 0.088
RPS4X (UniProt P62701) | inactive: 0.173 | inactive: 0.419 | inactive: -0.22 |  | inactive: 0.108 | inactive: 0.148 | inactive: 0.056 | inactive: -0.089 |  | inactive: 0.177
ROCK1 (UniProt Q13464) | inactive: -0.005 | inactive: -0.083 | inactive: -0.011 |  | inactive: -0.05 | inactive: 0.096 | inactive: 0.005 | inactive: -0.011 |  | inactive: 0.031
RPRD2 (UniProt Q5VT52) |  | inactive: -0.333 | inactive: 0.004 | inactive: -0.269 |  |  |  | inactive: 0.128 | inactive: 0.261 | 

An excerpt of these results, tab-delimited.
Target	log2 fold change [1]	log2 fold change (volasertib)	log2 fold change (epoxomicin)	log2 fold change [2]	log2 fold change [3]	log2 fold change [4]	log2 fold change [5]	log2 fold change [6]	log2 fold change (rosiglitazone)	log2 fold change [7]
RPGR (UniProt Q92834)			inactive: 0.018							
RNF40 (UniProt O75150)				inactive: 0.182				inactive: 0.141	inactive: 0.392	inactive: 0.046
ROMO1 (UniProt P60602)	inactive: 0.033	inactive: 0.01	inactive: -0.178		inactive: -0.023	inactive: 0.049	inactive: -0.06			inactive: 0.125

(cont.)

Target | log2 fold change [1] | log2 fold change (volasertib) | log2 fold change (epoxomicin) | log2 fold change [2] | log2 fold change [3] | log2 fold change [4] | log2 fold change [5] | log2 fold change [6] | log2 fold change (rosiglitazone) | log2 fold change [7]
RPF2 (UniProt Q9H7B2) |  |  |  | inactive: -0.314 | inactive: -0.195 | inactive: 0.104 |  |  |  | 
RPL7L1 (UniProt Q6DKI1) | inactive: 0.223 |  | inactive: -0.129 |  | inactive: -0.32 | inactive: 0.276 | inactive: -0.103 | inactive: -0.103 | inactive: -0.167 | inactive: 0.214
RPS3A (UniProt D6R9B6) |  |  |  |  |  |  |  |  |  | inactive: 0.247
RPS6KA1 isoform 2 (UniProt Q15418) | inactive: -0.223 | inactive: -0.212 | inactive: 0.071 |  | inactive: -0.146 | active: -0.438 | inactive: 0.053 | inactive: 0.026 |  | inactive: -0.032
RNF26 (UniProt Q9BY78) |  |  |  |  | inactive: 0.077 | active: -1.04 |  | inactive: 0.017 |  | 
ROR2 (UniProt Q01974) | inactive: -0.107 | inactive: -0.123 | inactive: 0.035 |  | inactive: -0.015 | inactive: -0.089 | inactive: 0.129 | inactive: -0.01 |  | inactive: -0.069
ROGDI (UniProt Q9GZN7) | inactive: 0.001 |  |  |  | inactive: 0.046 | inactive: -0.286 |  |  |  | 
RNF4 (UniProt P78317) |  | inactive: -0.059 | inactive: 0.158 | inactive: -0.682 |  |  | inactive: -0.018 |  | inactive: 0.001 | 
RPS2 (UniProt P15880) | inactive: 0.168 | inactive: 0.348 | inactive: -0.191 |  | inactive: 0.119 | inactive: 0.086 | inactive: 0.021 | inactive: -0.108 |  | inactive: 0.195
RREB1 isoform 2 (UniProt Q92766) | inactive: 0.051 | inactive: -0.077 | inactive: 0.046 | inactive: 0.037 | inactive: 0.057 | inactive: 0.073 |  | inactive: -0.176 | inactive: -0.092 | inactive: 0.095
RPS6KA3 (UniProt P51812) |  | inactive: -0.174 | inactive: 0.027 |  | inactive: -0.049 | inactive: -0.192 | inactive: 0.065 | inactive: 0.016 |  | inactive: -0.043
RPP30 (UniProt Q5VU11) |  |  |  | inactive: 0.153 | inactive: 0.225 | inactive: -0.207 | inactive: -0.139 |  | inactive: 0.016 | inactive: 0.041
RPL22L1 (UniProt Q6P5R6) | inactive: 0.032 |  | inactive: 0.066 | inactive: -0.023 |  |  |  |  |  | 
RPS6KA5 (UniProt O75582) | inactive: 0.024 | inactive: -0.529 | inactive: 0.048 |  |  |  |  |  |  | 
RPS14 (UniProt P62263) | inactive: 0.043 | inactive: 0.362 | inactive: -0.031 |  | inactive: 0.122 | inactive: 0.158 | inactive: 0.023 | inactive: -0.066 |  | inactive: 0.095
RPUSD3 (UniProt Q6P087) |  | inactive: -0.021 |  |  | inactive: 0.113 | inactive: -0.241 | inactive: -0.004 |  |  | 
RPL37 (UniProt P61927) | inactive: 0.154 | inactive: 0.36 |  | inactive: 0.067 | inactive: 0.23 | inactive: 0.253 | inactive: -0.036 | inactive: -0.128 | inactive: -0.209 | inactive: 0.354
RPUSD4 (UniProt Q96CM3) |  | inactive: 0.365 | inactive: -0.068 |  | inactive: -0.037 | inactive: 0.07 |  |  |  | 
RPAP2 (UniProt Q8IXW5) |  |  | inactive: -0.068 | inactive: 0.051 | inactive: 0.01 | inactive: -0.029 |  |  |  | 
RRP1 (UniProt P56182) |  |  |  | inactive: -0.044 | inactive: -0.277 | inactive: 0.218 |  | inactive: -0.111 |  | 
